Laboratory results published in article doi:10.1101/2020.02.05.935544.
Like-named read-outs stand apart in the source and are kept apart here. Results are given in words; binding and its absence hold for the method and conditions named. In cells and extracts the contact can be indirect. These calls come from enrichment with a bait or labelling near it, and not all partners need be listed.

Sequences of proteins named here, by UniProt entry; tags and fusion partners are left off.
UniProt Q9Z2D8: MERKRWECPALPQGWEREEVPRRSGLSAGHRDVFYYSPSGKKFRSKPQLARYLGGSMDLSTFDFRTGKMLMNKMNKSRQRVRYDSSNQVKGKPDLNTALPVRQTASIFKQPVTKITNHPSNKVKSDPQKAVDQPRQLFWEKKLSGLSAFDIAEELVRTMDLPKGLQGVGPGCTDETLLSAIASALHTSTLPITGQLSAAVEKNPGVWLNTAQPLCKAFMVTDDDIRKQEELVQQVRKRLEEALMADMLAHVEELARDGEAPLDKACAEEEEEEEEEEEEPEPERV
UniProt O95983: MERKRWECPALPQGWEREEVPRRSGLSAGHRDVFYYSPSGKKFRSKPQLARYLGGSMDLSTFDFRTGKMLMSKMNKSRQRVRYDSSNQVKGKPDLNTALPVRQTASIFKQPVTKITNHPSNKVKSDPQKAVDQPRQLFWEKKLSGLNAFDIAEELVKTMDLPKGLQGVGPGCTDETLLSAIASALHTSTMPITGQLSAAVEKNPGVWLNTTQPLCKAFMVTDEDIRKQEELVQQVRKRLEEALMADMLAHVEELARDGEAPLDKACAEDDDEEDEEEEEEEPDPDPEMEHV
UniProt B1AWL2: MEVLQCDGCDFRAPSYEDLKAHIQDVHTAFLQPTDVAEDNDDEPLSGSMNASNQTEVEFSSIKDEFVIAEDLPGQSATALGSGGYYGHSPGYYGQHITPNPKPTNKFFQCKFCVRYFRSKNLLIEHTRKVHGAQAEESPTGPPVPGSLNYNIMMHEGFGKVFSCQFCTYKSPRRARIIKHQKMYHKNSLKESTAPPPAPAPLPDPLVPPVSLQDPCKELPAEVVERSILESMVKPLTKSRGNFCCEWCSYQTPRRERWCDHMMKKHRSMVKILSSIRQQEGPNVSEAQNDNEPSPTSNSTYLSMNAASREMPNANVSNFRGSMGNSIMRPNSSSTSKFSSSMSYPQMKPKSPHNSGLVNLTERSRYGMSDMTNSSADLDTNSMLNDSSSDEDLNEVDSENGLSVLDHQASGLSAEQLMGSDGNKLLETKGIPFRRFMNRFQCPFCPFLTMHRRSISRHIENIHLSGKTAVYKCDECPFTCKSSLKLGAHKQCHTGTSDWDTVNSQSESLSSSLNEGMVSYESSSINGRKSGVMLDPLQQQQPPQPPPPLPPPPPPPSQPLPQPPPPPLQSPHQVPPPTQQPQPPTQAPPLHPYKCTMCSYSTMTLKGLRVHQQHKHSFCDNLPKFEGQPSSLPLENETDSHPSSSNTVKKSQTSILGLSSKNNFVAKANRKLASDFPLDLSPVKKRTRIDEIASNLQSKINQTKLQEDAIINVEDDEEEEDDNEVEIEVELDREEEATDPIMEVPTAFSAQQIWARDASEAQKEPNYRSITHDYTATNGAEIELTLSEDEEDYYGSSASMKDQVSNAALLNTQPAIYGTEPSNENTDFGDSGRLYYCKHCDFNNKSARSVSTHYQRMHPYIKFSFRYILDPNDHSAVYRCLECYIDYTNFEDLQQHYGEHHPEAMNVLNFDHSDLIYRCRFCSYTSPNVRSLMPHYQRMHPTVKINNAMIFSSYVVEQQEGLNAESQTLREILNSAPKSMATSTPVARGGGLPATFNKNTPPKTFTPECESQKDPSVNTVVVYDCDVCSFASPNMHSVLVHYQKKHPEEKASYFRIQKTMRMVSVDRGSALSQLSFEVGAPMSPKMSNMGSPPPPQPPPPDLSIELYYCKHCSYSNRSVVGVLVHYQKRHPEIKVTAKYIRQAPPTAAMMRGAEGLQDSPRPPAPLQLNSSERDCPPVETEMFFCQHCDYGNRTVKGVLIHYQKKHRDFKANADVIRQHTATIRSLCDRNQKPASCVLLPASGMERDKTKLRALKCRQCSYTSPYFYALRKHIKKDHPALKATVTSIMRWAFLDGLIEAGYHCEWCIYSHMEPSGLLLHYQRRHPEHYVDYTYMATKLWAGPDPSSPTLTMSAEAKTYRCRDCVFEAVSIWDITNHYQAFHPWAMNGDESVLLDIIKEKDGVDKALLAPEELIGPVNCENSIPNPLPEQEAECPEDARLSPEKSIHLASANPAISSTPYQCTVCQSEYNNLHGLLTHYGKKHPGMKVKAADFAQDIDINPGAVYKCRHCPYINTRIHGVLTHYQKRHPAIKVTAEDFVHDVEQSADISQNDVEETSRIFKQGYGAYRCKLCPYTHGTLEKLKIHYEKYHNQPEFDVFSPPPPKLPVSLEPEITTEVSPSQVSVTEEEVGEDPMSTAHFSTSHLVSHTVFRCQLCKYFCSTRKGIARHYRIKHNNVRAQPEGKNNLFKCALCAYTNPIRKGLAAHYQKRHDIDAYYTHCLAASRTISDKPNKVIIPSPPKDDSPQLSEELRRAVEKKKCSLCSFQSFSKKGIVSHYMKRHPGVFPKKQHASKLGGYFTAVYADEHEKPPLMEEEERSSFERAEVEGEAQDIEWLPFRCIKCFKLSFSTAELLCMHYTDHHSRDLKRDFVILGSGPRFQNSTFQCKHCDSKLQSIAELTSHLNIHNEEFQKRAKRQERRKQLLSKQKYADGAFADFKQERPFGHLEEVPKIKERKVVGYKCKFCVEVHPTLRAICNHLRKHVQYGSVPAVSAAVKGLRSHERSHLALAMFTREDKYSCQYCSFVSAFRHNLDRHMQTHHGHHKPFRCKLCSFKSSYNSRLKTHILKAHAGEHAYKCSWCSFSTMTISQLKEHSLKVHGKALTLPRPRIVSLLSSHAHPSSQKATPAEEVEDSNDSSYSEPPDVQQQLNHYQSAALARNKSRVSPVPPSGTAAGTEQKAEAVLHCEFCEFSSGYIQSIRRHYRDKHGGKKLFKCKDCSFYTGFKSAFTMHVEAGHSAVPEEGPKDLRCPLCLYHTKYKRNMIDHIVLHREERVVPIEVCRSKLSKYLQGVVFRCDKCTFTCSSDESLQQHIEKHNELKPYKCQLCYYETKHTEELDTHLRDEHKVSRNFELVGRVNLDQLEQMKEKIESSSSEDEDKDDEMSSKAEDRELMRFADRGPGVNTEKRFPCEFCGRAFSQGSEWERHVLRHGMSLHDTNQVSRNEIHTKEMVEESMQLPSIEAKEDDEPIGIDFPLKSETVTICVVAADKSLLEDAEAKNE

B1: VRTN (human) (protein, UniProt Q9H8Y1 1-702)
chain: MTSRNQLVQKVLQELQEAVECEGLEGLIGASLEAKQVLSSFTLPTCREGGPGLQVLEVDSVALSLYPEDAPRNMLPLVCKGEGSLLFEAASMLLWGDAGLSLELRARTVVEMLLHRHYYLQGMIDSKVMLQAVRYSLCSEESPEMTSLPPATLEAIFDADVKASCFPSSFSNVWHLYALASVLQRNIYSIYPMRNLKIRPYFNRVIRPRRCDHVPSTLHIMWAGQPLTSHFFRHQYFAPVVGLEEVEAEGAPGVAPALPALAPLSSPAKTLELLNREPGLSYSHLCERYSVTKSTFYRWRRQSQEHRQKVAARFSAKHFLQDSFHRGGVVPLQQFLQRFPEISRSTYYAWKHELLGSGTCPALPPREVLGMEELEKLPEEQVAEEELECSALAVSSPGMVLMQRAKLYLEHCISLNTLVPYRCFKRRFPGISRSTYYNWRRKALRRNPSFKPAPALSAAGTPQLASVGEGAVIPWKSEAEEGAGNATGEDPPAPGELLPLRMPLSRWQRRLRRAARRQVLSGHLPFCRFRLRYPSLSPSAFWVWKSLARGWPRGLSKLQVPVPTLGKGGQEAEEKQEKEAGRDVTAVMAPPVGASSEDVEGGPSREGALQEGATAQGQPHSGPLLSQPVVAAAGGRDGRMLVMDMIATTKFKAQAKLFLQKRFQSKSFPSYKEFSALFPLTARSTYYMWKRALYDGLTLVDG
B2: ZNF423 (human) (protein, UniProt Q2M1K9 1-1284)
chain: MHKKRVEEGEASDFSLAWDSSVTAAGGLEGEPECDQKTSRALEDRNSVTSQEERNEDDEDMEDESIYTCDHCQQDFESLADLTDHRAHRCPGDGDDDPQLSWVASSPSSKDVASPTQMIGDGCDLGLGEEEGGTGLPYPCQFCDKSFIRLSYLKRHEQIHSDKLPFKCTYCSRLFKHKRSRDRHIKLHTGDKKYHCHECEAAFSRSDHLKIHLKTHSSSKPFKCTVCKRGFSSTSSLQSHMQAHKKNKEHLAKSEKEAKKDDFMCDYCEDTFSQTEELEKHVLTRHPQLSEKADLQCIHCPEVFVDENTLLAHIHQAHANQKHKCPMCPEQFSSVEGVYCHLDSHRQPDSSNHSVSPDPVLGSVASMSSATPDSSASVERGSTPDSTLKPLRGQKKMRDDGQGWTKVVYSCPYCSKRDFNSLAVLEIHLKTIHADKPQQSHTCQICLDSMPTLYNLNEHVRKLHKNHAYPVMQFGNISAFHCNYCPEMFADINSLQEHIRVSHCGPNANPSDGNNAFFCNQCSMGFLTESSLTEHIQQAHCSVGSAKLESPVVQPTQSFMEVYSCPYCTNSPIFGSILKLTKHIKENHKNIPLAHSKKSKAEQSPVSSDVEVSSPKRQRLSASANSISNGEYPCNQCDLKFSNFESFQTHLKLHLELLLRKQACPQCKEDFDSQESLLQHLTVHYMTTSTHYVCESCDKQFSSVDDLQKHLLDMHTFVLYHCTLCQEVFDSKVSIQVHLAVKHSNEKKMYRCTACNWDFRKEADLQVHVKHSHLGNPAKAHKCIFCGETFSTEVELQCHITTHSKKYNCKFCSKAFHAIILLEKHLREKHCVFDAATENGTANGVPPMATKKAEPADLQGMLLKNPEAPNSHEASEDDVDASEPMYGCDICGAAYTMEVLLQNHRLRDHNIRPGEDDGSRKKAEFIKGSHKCNVCSRTFFSENGLREHLQTHRGPAKHYMCPICGERFPSLLTLTEHKVTHSKSLDTGTCRICKMPLQSEEEFIEHCQMHPDLRNSLTGFRCVVCMQTVTSTLELKIHGTFHMQKLAGSSAASSPNGQGLQKLYKCALCLKEFRSKQDLVKLDVNGLPYGLCAGCMARSANGQVGGLAPPEPADRPCAGLRCPECSVKFESAEDLESHMQVDHRDLTPETSGPRKGTQTSPVPRKKTYQCIKCQMTFENEREIQIHVANHMIEEGINHECKLCNQMFDSPAKLLCHLIEHSFEGMGGTFKCPVCFTVFVQANKLQQHIFAVHGQEDKIYDCSQCPQKFFFQTELQNHTMSQHAQ
B3: VRTN (mouse) (protein, UniProt Q3SYK4 1-740)
chain: MTSRDQLVQQVLRDLQEAVESEGLEGLIGAALEAKQVLSSFTLPICQKGGPGAQVLEVDSVALSLYPEDAPRNMLPLVCKGEGSLLFEATSLLLWGHTGLSLELRARTVVEMLLHRHYYLQGMIDSKVMLQAVRYSLCSEESPEMTNLSFATLEAIFDADVKATCFPTSFSNVWHLYALASILECNIYSIYPMRNIKIRPYFNRVIMPRCSTHVTSMLHIMWAGQPLTSHLFRHQYFAPVVGLEEVEADCTASLNPVPPNLGPLLPPAKTLELLNREPGLSYSHLCDRISITKSTFYRWRRQTQEHRQKVATRFSAKHFLQDSFHRGGFVPLQQFLQRFPEISRSTYYAWKHELLGSGANSALGPATPSREALAVPEVERPPGKKAAEEVGCSSLAAAMLSPPSMILMQRAKSFLEYCISLNKLVPYRCFKCRFPGISRSTYYNWRRKALRRTPSFKLSQAAFETAESLQPTDVGKETPFSLKREAGEEETGKAGSGAPLTSRGLISPKMPLSRWQRRLRRAARKQVLNGHLPFCRFRLRYPSLLPSTFWVWKSLSRRSPGMQIPSLSQRRQKPQGRQKPEGRQKPEEQQKPEGRQKPEGRQKPVEPQAMEADQNVPAMVVPPAETLPVATSPEDVPGGPSREGNIIQEAAMTQSQPHSGSLPSQTLAEAPGGSDGQVLVMDMLTTTRFKAQAKLFLQKRFQSKTFPSYKEFQALFPLTARSTYYMWKRALYEGLTLIDG
B4: ZNF423 (mouse) (protein, UniProt Q80TS5 1-1292)
chain: MSRRKQAKPRSVKVEEGEASDFSLAWDSSVAAAGGLEGEPECDRKTSRALEDRNSVTSQEERNEDDEDVEDESIYTCDHCQQDFESLADLTDHRAHRCPGDGDDDPQLSWVASSPSSKDVASPTQMIGDGCDLGLGEEEGGTGLPYPCQFCDKSFIRLSYLKRHEQIHSDKLPFKCTFCSRLFKHKRSRDRHIKLHTGDKKYHCHECEAAFSRSDHLKIHLKTHSSSKPFKCSVCKRGFSSTSSLQSHMQAHKKNKEHLAKSEKEAKKDDFMCDYCEDTFSQTEELEKHVLTLHPQLSEKADLQCIHCPEVFVDESTLLAHIHQAHANQKHKCPMCPEQFSSVEGVYCHLDSHRQPDSSNHSVSPDPVLGSVASMSSATPDSSASVERGSTPDSTLKPLRGQKKMRDDGQSWPKVVYSCPYCSKRDFTSLAVLEIHLKTIHADKPQQSHTCQICLDSMPTLYNLNEHVRKLHKSHAYPVMQFGNISAFHCNYCPEMFADINSLQEHIRVSHCGPNANPPDGNNAFFCNQCSMGFLTESSLTEHIQQAHCSVGSTKLESPVVQPTQSFMEVYSCPYCTNSPIFGSILKLTKHIKENHKNIPLAHSKKSKAEQSPVSSDVEVSSPKRQRLSGSANSISNGEYPCNQCDLKFSNFESFQTHLKLHLELLLRKQACPQCKEDFDSQESLLQHLTVHYMTTSTHYVCESCDKQFSSVDDLQKHLLDMHTFVLYHCTLCQEVFDSKVSIQVHLAVKHSNEKKMYRCTACNWDFRKEADLQVHVKHSHLGNPAKAHKCIFCGETFSTEVELQCHITTHSKKYNCRFCSKAFHAVILLEKHLREKHCVFDAAAENGTANGVPPTSTKKAEPADLQGMLLKNPEAPNSHEASEDDVDASEPMYGCDICGAAYTMEVLLQNHRLRDHNIRPGEDDGSRKKAEFIKGSHKCNVCSRTFFSENGLREHLQTHRGPAKHYMCPICGERFPSLLTLTEHKVTHSKSLDTGTCRICKMPLQSEEEFIEHCQMHPDLRNSLTGFRCVVCMQTVTSTLELKIHGTFHMQKLAGSSAASSPNGQGLQKLYKCALCLKEFRSKQDLVRLDVNGLPYGLCAGCMARSANGQVGGLAPPEPADRPCAGLRCPECNVKFESAEDLESHMQVDHRDLTPETSGPRKGAQTSPVPRKKTYQCIKCQMTFENEREIQIHVANHMIEEGINHECKLCNQMFDSPAKLLCHLIEHSFEGMGGTFKCPVCFTVFVQANKLQQHIFAVHGQEDKIYDCSQCPQKFFFQTELQNHTMSQHAQ
B5: PGBD3 (protein, UniProt Q8N328 1-593)
chain: MPRTLSLHEITDLLETDDSIEASAIVIQPPENATAPVSDEESGDEEGGTINNLPGSLLHTAAYLIQDGSDAESDSDDPSYAPKDDSPDEVPSTFTVQQPPPSRRRKMTKILCKWKKADLTVQPVAGRVTAPPNDFFTVMRTPTEILELFLDDEVIELIVKYSNLYACSKGVHLGLTSSEFKCFLGIIFLSGYVSVPRRRMFWEQRTDVHNVLVSAAMRRDRFETIFSNLHVADNANLDPVDKFSKLRPLISKLNERCMKFVPNETYFSFDEFMVPYFGRHGCKQFIRGKPIRFGYKFWCGATCLGYICWFQPYQGKNPNTKHEEYGVGASLVLQFSEALTEAHPGQYHFVFNNFFTSIALLDKLSSMGHQATGTVRKDHIDRVPLESDVALKKKERGTFDYRIDGKGNIVCRWNDNSVVTVASSGAGIHPLCLVSRYSQKLKKKIQVQQPNMIKVYNQFMGGVDRADENIDKYRASIRGKKWYSSPLLFCFELVLQNAWQLHKTYDEKPVDFLEFRRRVVCHYLETHGHPPEPGQKGRPQKRNIDSRYDGINHVIVKQGKQTRCAECHKNTTFRCEKCDVALHVKCSVEYHTE
B6: BEND3 (human) (protein, UniProt Q5T5X7 1-828)
chain: MNSTEFTEDVEEVLKSITVKVETEAEDAALDCSVNSRTSEKHSVDSVLTALQDSSKRKQLVSDGLLDSVPGVKRRRLIPEALLAGMRNRENSSPCQGNGEQAGRGRSLGNVWPGEEEPCNDATTPSYKKPLYGISHKIMEKKNPPSGDLLNVYELFEKANASNSPSSLRLLNEPQKRDCGSTGAGTDNDPNIYFLIQKMFYMLNTLTSNMSQLHSKVDLLSLEVSRIKKQVSPTEMVAKFQPPPEYQLTAAELKQIVDQSLSGGDLACRLLVQLFPELFSDVDFSRGCSACGFAAKRKLESLHLQLIRNYVEVYYPSVKDTAVWQAECLPQLNDFFSRFWAQREMEDSQPSGQVASFFEAEQVDPGHFLDNKDQEEALSLDRSSTIASDHVVDTQDLTEFLDEASSPGEFAVFLLHRLFPELFDHRKLGEQYSCYGDGGKQELDPQRLQIIRNYTEIYFPDMQEEEAWLQQCAQRINDELEGLGLDAGSEGDPPRDDCYDSSSLPDDISVVKVEDSFEGERPGRRSKKIWLVPIDFDKLEIPQPDFEVPGADCLLSKEQLRSIYESSLSIGNFASRLLVHLFPELFTHENLRKQYNCSGSLGKKQLDPSRIKLIRHYVQLLYPRAKNDRVWTLEFVGKLDERCRRRDTEQRRSYQQQRKVHVPGPECRDLTSYAINPERFREEFEGPPLPPERSSKDFCKIPLDELVVPSPDFPVPSPYLLSDKEVREIVQQSLSVGNFAARLLVRLFPELFTAENLRLQYNHSGACNKKQLDPTRLRLIRHYVEAVYPVEKMEEVWHYECIPSIDERCRRPNRKKCDILKKAKKVEK

Tests used:
Assay in all cases: affinity purification with mass spectrometry
[1] = target: Mbd3-3xFLAG (endogenously tagged mouse MBD3) (mouse) (UniProt Q9Z2D8)
[2] = target: MBD3-3xFLAG (endogenously tagged human MBD3) (human) (UniProt O95983)
[3] = target: Mbd3-3xFLAG (endogenously tagged mouse MBD3) (mouse) (UniProt Q9Z2D8); remark: listed apart in the source

Molecule | binding [2] | further results
ZNF462 (mouse) (from UniProt B1AWL2 1-2495) | – | binding [1]: binds
B1 | binds | –
B2 | binds | –
B3 | – | binding [3]: binds
B4 | – | binding [3]: binds
B5 | binds | –
B6 | binds | –
